# Reference: the supplement of paper PMC8728848
# The list shows a part of the results.
# B1: Vd7LysM (Verticillium dahliae) (protein)
# chain: RRGPEPKYPPAAGTSSYCSYWVDYEGDKSCSRVLEDNVVVLKDFARWNPTVGADCSGIKAGNSYCVEAFGEPEPIEVTTTTRAATTTTQPTATTTTFANGIATPQPTQSGMVTNCNKFHWIAEGVSCSQVISFQKITLADFVKWNPSVKSDCSGMWAGVNVCVGVVGSSTDTAKPTTTAPSNGVVTPQPTQPSMVTNCNKFHWIAKGVTCQQVISYQKISLADFVKWNPSVLSDCSGMWAEVQVCVGVIGSTPTTLATTTTTAGNGVSTPLPTQPGMVTNCAKFHWVAKGVTCNQIYSFQKITLEQFVSYNPTVKSDCSGMQAEVQVCVGLIAGTTPTTTRPPTTTAPGNGVSTPQPTQPGMVTNCAKFHWVAKGVTCNQIYSFQKITLEQFVSFNPTVKSDCTGMQAEVNVCVGLIGGNPTPTQTGNGIATPTPIQPGMVSNCKKFHWIAQGVTCQQVISFQKITLADFVKWNTGVGSDCRTMWAETNVCVGV
# Assays:
# Test in all cases: glycan array binding signal (z-score within array); higher = stronger binding
# Settings in all cases: glycan notation: IUPAC condensed, linker removed
# [1] = target: Gal(b1-3)GalNAc(b1-3)Gal(a1-4)Gal(b1-4)Glc
# How it was run: (§1)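 Columns mapping to the same glycan were averaged after glycan names were converted to IUPAC-condensed notation. The data come from 3228 arrays in the Consortium for Functional Glycomics database, limited to those with an available protein sequence. Binding is reported as a within-array Z-score averaged across arrays of one protein sequence and across linkers.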
# [2] = target: Gal(b1-3)GalNAc(b1-4)Gal(b1-4)Glc
# How it was run: as §1
# [3] = target: Gal(b1-3)GalNAc(b1-4)[Neu5Ac(a2-3)]Gal(b1-4)Glc
# How it was run: as §1
# Gal(b1-3)GlcNAc = target: Gal(b1-3)GlcNAc
# How it was run: as §1
# [4] = target: Gal(b1-3)GlcNAc(a1-3)Gal(b1-4)GlcNAc
# How it was run: as §1
# [5] = target: Gal(b1-3)GlcNAc(a1-6)Gal(b1-4)GlcNAc
# How it was run: as §1
# Gal(b1-3)GlcNAc(b1-2)Man = target: Gal(b1-3)GlcNAc(b1-2)Man
# How it was run: as §1
# [6] = target: Gal(b1-3)GlcNAc(b1-2)Man(a1-3)[Gal(b1-3)GlcNAc(b1-2)Man(a1-6)]Man(b1-4)GlcNAc(b1-4)GlcNAc
# How it was run: as §1
# [7] = target: Gal(b1-3)GlcNAc(b1-2)Man(a1-3)[Gal(b1-3)GlcNAc(b1-2)Man(a1-6)]Man(b1-4)GlcNAc(b1-4)[Fuc(a1-6)]GlcNAc
# How it was run: as §1
# [8] = target: Gal(b1-3)GlcNAc(b1-2)Man(a1-3)[GlcNAc(b1-4)][Gal(b1-3)GlcNAc(b1-2)Man(a1-6)]Man(b1-4)GlcNAc(b1-4)GlcNAc
# How it was run: as §1
# [9] = target: Gal(b1-3)GlcNAc(b1-2)[Gal(b1-3)GlcNAc(b1-6)]Man(a1-6)[Gal(b1-3)GlcNAc(b1-2)Man(a1-3)]Man(b1-4)GlcNAc(b1-4)GlcNAc
# How it was run: as §1
# [10] = target: Gal(b1-3)GlcNAc(b1-3)Gal(b1-3)GlcNAc
# How it was run: as §1
# [11] = target: Gal(b1-3)GlcNAc(b1-3)Gal(b1-4)Glc
# How it was run: as §1
# [12] = target: Gal(b1-3)GlcNAc(b1-3)Gal(b1-4)GlcNAc
# How it was run: as §1
# [13] = target: Gal(b1-3)GlcNAc(b1-3)Gal(b1-4)GlcNAc(b1-2)Man(a1-3)[Gal(b1-3)GlcNAc(b1-3)Gal(b1-4)GlcNAc(b1-2)Man(a1-6)]Man(b1-4)GlcNAc(b1-4)GlcNAc
# How it was run: as §1
# [14] = target: Gal(b1-3)GlcNAc(b1-3)Gal(b1-4)GlcNAc(b1-2)[Gal(b1-3)GlcNAc(b1-3)Gal(b1-4)GlcNAc(b1-6)]Man(a1-6)[Gal(b1-3)GlcNAc(b1-3)Gal(b1-4)GlcNAc(b1-2)Man(a1-3)]Man(b1-4)GlcNAc(b1-4)[Fuc(a1-6)]GlcNAc
# How it was run: as §1
# [15] = target: Gal(b1-3)GlcNAc(b1-3)Gal(b1-4)GlcNAc(b1-3)Gal(b1-4)GlcNAc(b1-2)[Gal(b1-3)GlcNAc(b1-3)Gal(b1-4)GlcNAc(b1-3)Gal(b1-4)GlcNAc(b1-6)]Man(a1-6)[Gal(b1-3)GlcNAc(b1-3)Gal(b1-4)GlcNAc(b1-3)Gal(b1-4)GlcNAc(b1-2)Man(a1-3)]Man(b1-4)GlcNAc(b1-4)[Fuc(a1-6)]GlcNAc
# How it was run: as §1
# [16] = target: Gal(b1-3)GlcNAc(b1-3)Gal(b1-4)GlcNAc(b1-6)[Gal(b1-3)GlcNAc(b1-3)]Gal(b1-4)Glc
# How it was run: as §1
# [17] = target: Gal(b1-3)GlcNAc(b1-3)Gal(b1-4)[Fuc(a1-3)]GlcNAc
# How it was run: as §1
# [18] = target: Gal(b1-3)GlcNAc(b1-3)Gal(b1-4)[Fuc(a1-3)]GlcNAc(b1-6)[Gal(b1-3)GlcNAc(b1-3)]Gal(b1-4)Glc
# How it was run: as §1
# [19] = target: Gal(b1-3)GlcNAc(b1-3)GalNAc
# How it was run: as §1
# [20] = target: Gal(b1-3)GlcNAc(b1-6)Gal(b1-4)GlcNAc
# How it was run: as §1
# [21] = target: Gal(b1-3)GlcNAc(b1-6)GalNAc
# How it was run: as §1
# [22] = target: Gal(b1-3)GlcNAc(b1-6)[Gal(b1-3)]GalNAc
# How it was run: as §1
# Gal(b1-3)GlcNAc6S = target: Gal(b1-3)GlcNAc6S
# How it was run: as §1
# [23] = target: Gal(b1-3)[Fuc(a1-4)]GlcNAc
# How it was run: as §1
# [24] = target: Gal(b1-3)[Fuc(a1-4)]GlcNAc(b1-2)Man
# How it was run: as §1
# [25] = target: Gal(b1-3)[Fuc(a1-4)]GlcNAc(b1-2)Man(a1-3)[Gal(b1-3)[Fuc(a1-4)]GlcNAc(b1-2)Man(a1-6)]Man(b1-4)GlcNAc(b1-4)[Fuc(a1-6)]GlcNAc
# How it was run: as §1
# [26] = target: Gal(b1-3)[Fuc(a1-4)]GlcNAc(b1-3)Gal(b1-3)[Fuc(a1-4)]GlcNAc
# How it was run: as §1
# [27] = target: Gal(b1-3)[Fuc(a1-4)]GlcNAc(b1-3)Gal(b1-4)[Fuc(a1-3)]GlcNAc
# How it was run: as §1
# [28] = target: Gal(b1-3)[Fuc(a1-4)]GlcNAc(b1-6)GalNAc
# How it was run: as §1
# [29] = target: Gal(b1-3)[GlcNAc(b1-6)]GalNAc
# How it was run: as §1
# [30] = target: Gal(b1-3)[Neu5Ac(a2-6)]GalNAc
# How it was run: as §1
# [31] = target: Gal(b1-3)[Neu5Ac(a2-6)]GlcNAc(b1-4)Gal(b1-4)Glc
# How it was run: as §1
# [32] = target: Gal(b1-3)[Neu5Ac(b2-6)]GalNAc
# How it was run: as §1
# Gal(b1-4)Gal = target: Gal(b1-4)Gal
# How it was run: as §1
# [33] = target: Gal(b1-4)GalNAc(a1-3)[Fuc(a1-2)]Gal(b1-4)GlcNAc
# How it was run: as §1
# [34] = target: Gal(b1-4)GalNAc(b1-3)[Fuc(a1-2)]Gal(b1-4)GlcNAc
# How it was run: as §1
binder,measurement,setting,value
B1,glycan array binding signal (z-score),[1],-0.878
same,glycan array binding signal (z-score),[2],2.86
same,glycan array binding signal (z-score),[3],-0.55
same,glycan array binding signal (z-score),Gal(b1-3)GlcNAc,-0.186
same,glycan array binding signal (z-score),[4],0.094
same,glycan array binding signal (z-score),[5],-0.139
same,glycan array binding signal (z-score),Gal(b1-3)GlcNAc(b1-2)Man,-0.306
same,glycan array binding signal (z-score),[6],-0.135
same,glycan array binding signal (z-score),[7],0.031
same,glycan array binding signal (z-score),[8],-0.536
same,glycan array binding signal (z-score),[9],-0.11
same,glycan array binding signal (z-score),[10],0.352
same,glycan array binding signal (z-score),[11],0.816
same,glycan array binding signal (z-score),[12],0.928
same,glycan array binding signal (z-score),[13],-0.175
same,glycan array binding signal (z-score),[14],1.95
same,glycan array binding signal (z-score),[15],1.82
same,glycan array binding signal (z-score),[16],-1.41
same,glycan array binding signal (z-score),[17],-2.84
same,glycan array binding signal (z-score),[18],-0.547
same,glycan array binding signal (z-score),[19],0.861
same,glycan array binding signal (z-score),[20],1.31
same,glycan array binding signal (z-score),[21],-0.265
same,glycan array binding signal (z-score),[22],-0.142
same,glycan array binding signal (z-score),Gal(b1-3)GlcNAc6S,-0.63
same,glycan array binding signal (z-score),[23],-0.618
same,glycan array binding signal (z-score),[24],-0.46
same,glycan array binding signal (z-score),[25],0.346
same,glycan array binding signal (z-score),[26],1.63
same,glycan array binding signal (z-score),[27],0.324
same,glycan array binding signal (z-score),[28],-0.63
same,glycan array binding signal (z-score),[29],-0.603
same,glycan array binding signal (z-score),[30],0.094
same,glycan array binding signal (z-score),[31],-0.885
same,glycan array binding signal (z-score),[32],0.809
same,glycan array binding signal (z-score),Gal(b1-4)Gal,-0.47
same,glycan array binding signal (z-score),[33],-1.77
same,glycan array binding signal (z-score),[34],-0.628

# Another view of part of the listing above:
binder | measurement | setting | value
B1 | glycan array binding signal (z-score) | [32] | 0.809
same | glycan array binding signal (z-score) | Gal(b1-4)Gal | -0.47
